In all, about 2,800 compounds went through this assay and fewer than 10 were called active. Another 7% or so got no clear call; they are omitted. Calls follow the shape of the dose curve; as a rule, active = well fitted inhibition curve with a large enough effect; inconclusive = small, poorly fitted or top-dose-only effect; inactive = no such curve, though single readings can be large or run the other way. Some of the results follow.

Sequences of proteins named here, by UniProt entry; tags and fusion partners are left off. A change or cut given only in a name is not applied to a line headed by its entry.
UniProt C7C422: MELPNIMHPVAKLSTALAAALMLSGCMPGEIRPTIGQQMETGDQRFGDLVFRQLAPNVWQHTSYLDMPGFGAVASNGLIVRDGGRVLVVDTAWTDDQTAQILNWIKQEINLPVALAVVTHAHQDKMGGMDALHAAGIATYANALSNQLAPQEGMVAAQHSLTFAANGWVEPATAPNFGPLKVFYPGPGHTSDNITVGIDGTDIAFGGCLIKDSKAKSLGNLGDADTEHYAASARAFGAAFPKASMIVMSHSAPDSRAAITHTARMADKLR

The values that follow come from PubChem BioAssay AID1794844 (National Center for Advancing Translational Sciences (NCATS), 2023).

The target of this experiment is Metallo-beta-lactamase type 2 (Klebsiella pneumoniae) (UniProt C7C422). Put plainly: qHTS to identify inhibitors of the New Delhi Metallo-beta-lactamase (NDM): Nitrocefin screen against the machine-based learning selections. Also: % of control where 0% means no effect. Conditions: NDM-1 enzyme, nitrocefin hydrolysis, absorbance 485 nm; activity, negative = inhibition: at the top concentration. Put shortly:
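NDM-1 (2 nM final) in 50 mM HEPES pH 7.0, 1 uM Zn2SO4, 0.01% Tween20 was preincubated with compounds for >30 min. Nitrocefin (16.7 uM final) was read at 485 nm after 15 min, and meropenem (50 uM final) at 300 nm after 30 min.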
(In qHTS, concentration-response curves come from the screen itself.)
`CC(=O)N1CCN(c2cc(-c3noc([C@@H]4CCCN4Cc4ccccc4C)n3)ccn2)CC1`: the “activity, negative = inhibition” value is inactive: -0.621%. For the compound `O=C(NCCCn1ccnn1)[C@H]1CNC[C@@H](C(=O)N2CCCC2)C1`, the “activity, negative = inhibition” value is inactive: 0.996%.

For `Cc1ccc2oc(C(=O)N(C)Cc3nc(-c4cccnc4)no3)c(C)c2c1`, the “activity, negative = inhibition” value is inactive: -8.24%.

For `Cc1csc(NC(=O)[C@@H]2CCC[C@@H](NCC3CC3)CN(C)C(=O)C2)n1`, the “activity, negative = inhibition” value is inactive: -7.47% [at 57.5 µM]. Take `O=C(Nc1cccnc1)c1ccnc(-c2nnc3ccc(N4CCOCC4)nn23)c1`: the “activity, negative = inhibition” value is inactive: -5.3% [at 57.5 µM].

Regarding `CN(CCc1nc2ccc(Cl)cc2[nH]1)c1cc(C2CC(O)C2)nc(N)n1` (configuration not stated), the “activity, negative = inhibition” value was inactive: 1.04%. Under `OC(c1ccccc1)c1nc(Nc2ccc3c(c2)OCO3)n[nH]1` (configuration not stated) stands inactive: -4.45% [at 57.5 µM]; under `O=c1cc(-c2ccccn2)oc2c(-c3ccc(CO)cc3)nccc12`, inactive: 15.2% [at 57.5 µM]. `COCCNC(=O)Cc1c[nH]c2ncc(-c3ccccc3)cc12`: the “activity, negative = inhibition” value was inactive: 3.23% [at 57.5 µM].

Regarding `CC(C)CN1CCC(c2nc3ccc(F)cc3c(=O)[nH]2)CC1`, the “activity, negative = inhibition” value was inactive: -1.85%. On to `COc1ccccc1-c1nnc([C@H]2CCN(Cc3cccnc3)C2)o1`, for which the “activity, negative = inhibition” value was inactive: -0.956% [at 57.5 µM]. The result for `COc1ccc(C(=O)NC[C@@H]2C=C(C)[C@H](Cc3nnc(-c4ccncc4)o3)C[C@H]2C(C)C)cc1` reads inactive: -2.25%; that for `CN1CCOc2c(C(=O)NCCC(N)=O)cc(-c3ccccc3O)cc21`, inactive: -0.0482% [at 57.5 µM]. The result for `CN(Cc1ccccc1)Cc1cc(CC2(NCc3ccc(OC(F)(F)F)cc3)COC2)no1` reads inactive: -2.31%.

On to `COc1nc(C)c(C(=O)N2CCC(c3[nH]ncc3-c3ccccc3)CC2)s1`, for which the “activity, negative = inhibition” value was inactive: 0.575%. Turning to `CCCNC(=O)N(C1CCOCC1)C1CCN(C(=O)Nc2c(F)cccc2F)CC1`, the “activity, negative = inhibition” value is inactive: 0.64%. With `CN(C)c1cccc(NC(=O)Cc2c[nH]c3ncc(-c4cccnc4)cc23)c1`, the “activity, negative = inhibition” value was inactive: 2.98% [at 57.5 µM]. Consider `CNC(=O)C1(N2CCC[C@H]2C(=O)N2CCCC2)COC1`, for which the “activity, negative = inhibition” value was inactive: 11.1% [at 76.7 µM]. As for `Cc1noc(-c2cn(C3CCN(C(=O)c4ccccc4Cl)C3)nn2)n1` (configuration not stated), the “activity, negative = inhibition” value is inactive: -7.31%. Under `COCCNC(=O)C[C@@H]1C[C@@H](C(C)C)[C@H](CNS(=O)(=O)c2ccc(OC)cc2)C=C1C` stands inactive: 15.6%; under `CC(=O)N1CCN(C(=O)C[C@@H]2c3nc(NC(=O)C4CCCCC4)sc3C[C@@H]3[C@](C)(CO)[C@H](O)CC[C@]32C)CC1`, inactive: 1.19%; under `c1ccc(-c2cnc(Nc3ccncc3)c3c2CCO3)cc1`, inactive: -9.68% [at 76.7 µM]. The result for `CN(Cc1ccccc1)C(=O)[C@@H]1Cc2nc[nH]c2CN1` reads inactive: -2.98% [at 76.7 µM]. The result for `Cc1nc2c(c(-c3ccc(O)cc3)n1)CN(C(=O)C1CC1)CCC2` reads inactive: -5.66% [at 57.5 µM]; that for `O[C@@H]1C[C@@H](c2nc(-c3cnccn3)no2)N(Cc2ccc(F)cc2)C1`, inactive: -2.44% [at 57.5 µM].

With `O=C(NCc1cc2n(n1)CCN(C1CCCCC1)C2)c1cnn2ccccc12`, the “activity, negative = inhibition” value was inactive: -7.31%. The result for `CCN(C)S(=O)(=O)NCC1CCN(c2cnn(C)c(=O)c2)C1` (configuration not stated) reads inactive: -0.157%. In the case of `COC(=O)c1cccc(C(=O)N[C@H]2CO[C@H]3[C@@H]2OC[C@H]3OC(=O)Nc2cccc(C(F)(F)F)c2)c1`, the “activity, negative = inhibition” value is inactive: 4.86%. Take `Cc1n[nH]c(C)c1CN1C[C@@H](CO)[C@H](NC(=O)c2ccccc2)C1`: the “activity, negative = inhibition” value is inactive: -2.85%. Under `CC(=O)N1CCC(N2C[C@@H]3OCC(=O)N[C@@H]3C2)CC1` stands inactive: -2.19% [at 76.7 µM]. Turning to `Cc1ccccc1-c1cnc2[nH]cc(CC(=O)Nc3cccnc3)c2c1`, the “activity, negative = inhibition” value was inactive: -2.14% [at 57.5 µM]. The result for `COC(=O)[C@H](NC(=O)[C@@H]1C[C@@H](NC(=O)c2ccncc2)CCN1S(=O)(=O)c1ccc(OC)cc1)C(C)C` reads inactive: -3.06%; that for `O=C(NCC1CCOCC1)c1cnc2n[nH]c(-c3ccccc3)c2n1`, inactive: 6.45% [at 57.5 µM]; that for `c1cncc(-c2ccnc(NCCCn3nccc3C3CC3)n2)c1`, inactive: 0.0017%. Under `CC(=O)N1CCN(C(=O)C2CCNCC2)C[C@@H]1C(=O)N[C@@H](CC1CCCCC1)C(N)=O` stands inactive: -6.76%; under `COc1cc(C)c2c(c1C)C[C@H](C(C)C(=O)N1CCSCC1)CC2` (some centres not stated), inactive: -5.07% [at 57.5 µM]. The result for `CC1(c2ccccc2)CCCN(C(=O)c2cc(-c3ccncc3)n[nH]2)C1` (configuration not stated) reads inactive: -5.28%; that for `CC1(CNc2ccccc2)COc2ccc(C(=O)NCCc3ccccn3)cc2N1` (configuration not stated), inactive: 8.93% [at 57.5 µM]. Regarding `COc1ccc(NC(=O)c2nc(C(O)c3cccc(O)c3)oc2C)cn1` (configuration not stated), the “activity, negative = inhibition” value was inactive: -8% [at 57.5 µM]. The result for `CCN(Cc1cnn(CC)c1)C(=O)C1COc2ccccc2C1` (configuration not stated) reads inactive: 11.9%; that for `COc1ccc(C(=O)N[C@H]2CO[C@H]3[C@@H]2OC[C@@H]3n2nnnc2-c2ccc3c(c2)OCO3)cc1`, inactive: 4.63%. The result for `O=C(NCCc1csc(-c2ncccn2)n1)C1NCCc2[nH]cnc21` (configuration not stated) reads inactive: -5.45%; that for `CC(C)c1nc(C2Cc3ccccc3N2C(=O)NCc2ccco2)no1` (configuration not stated), inactive: -0.216%; that for `Cc1noc2c(NC3CCC(O)CC3)cc(-c3ccc(F)cc3)nc12` (configuration not stated), inactive: -3.78% [at 57.5 µM]. Under `CC(=O)Nc1ccc(CN2CCC3(CC2)CN[S+](=O)([O-])c2ccccc2N3)cc1` stands inactive: -0.0615%; under `COc1ccc(CNC(=O)C[C@@H]2O[C@H](CNCc3cccc(Cl)c3)[C@@H](O)[C@H]2O)cc1`, inactive: -6.58% [at 57.5 µM]. As for `C[C@@H](NC(=O)Nc1ccccc1)c1onc(-c2ccc(Cl)cc2)c1C(=O)O`, the “activity, negative = inhibition” value is inactive: -9% [at 57.5 µM].

Consider `O=C(c1ccccc1OCC1CCCN(C(=O)c2n[nH]c3ccccc23)C1)N1CCOCC1` (configuration not stated), for which the “activity, negative = inhibition” value is inactive: -10.2%.

`C[C@@]1(O)CCN(C(=O)c2cc(C(F)(F)F)ccc2Cl)C[C@@H]1O`: the “activity, negative = inhibition” value was inactive: -0.333%. Under `CN(Cc1ccccc1)Cc1cc(C(=O)N(C)Cc2ccsc2)no1` stands inactive: 0.722%; under `COC[C@H]1CCCN1Cc1nc(C2(O)CCN(C)CC2)cs1`, inactive: -1.63% [at 57.5 µM].

For the compound `c1ccc(CCN2CCNc3cc(Nc4ccc(N5CCOCC5)cc4)ncc3C2)cc1`, the “activity, negative = inhibition” value is inactive: 6.99% [at 57.5 µM]. As for `COc1ccc(F)c(CN2CCCC(O)(CN(C)Cc3cc(C)on3)C2=O)c1` (configuration not stated), the “activity, negative = inhibition” value was inactive: -7.5%. For `Cc1cc(C)n(-c2ccc(NC(=O)C3CCN(Cc4nnc(C)o4)CC3)cc2)n1`, the “activity, negative = inhibition” value was inactive: -1.31%.

In the case of `COc1ccc(C(=O)N2CCCC(c3nccn3CC3CCC3)C2)c(OC)n1` (configuration not stated), the “activity, negative = inhibition” value was inactive: -6.83%. The result for `CC(C)NC(=O)CN1CCN(c2nccc(N3CCC(O)CC3)n2)CC1` reads inactive: -11%; that for `CC(C)CN=C1S[C@H]2[C@H]([C@@H](O)[C@H](O)C[C@@H]2C(N)=O)N1Cc1ccc(F)cc1`, inactive: 0.0925% [at 57.5 µM]; that for `CC(=O)NC(CO)C(=O)N1CCC(O)(c2ccc(C)cn2)CC1` (configuration not stated), inactive: -8.69%. As for `Cc1ccc(N2CCN(C(=O)C3CCCN(c4cnc5nccnc5c4)C3)CC2)cc1` (configuration not stated), the “activity, negative = inhibition” value was inactive: 12.1%. On to `Cc1ccc(C2(O)CCN(C(=O)c3cccc(-c4ncc[nH]4)c3)CC2)nc1`, for which the “activity, negative = inhibition” value was inactive: 5.53%. Under `Cc1cnccc1N1CCCN(C(=O)c2cccc(C3CCCNC3)c2)CC1` (configuration not stated) stands inactive: -5.47%; under `Cc1ccccc1Oc1ncccc1CNC(=O)CCn1cnnc1`, inactive: 7.19%.
